Measurements reported in US4603134A, “Piperazine derivative and pharmaceutical composition containing the same” (Ferrer International, S.A., priority 1984, dated 1986).
pIC50: −log10 of the molar value.

Test system: isolate of guinea-pig ileum
Experiment: Anti-histamine activity in an isolate of guinea-pig ileum, suspended in a Tyrode bath at 32°-35° C.
Details: Cavia porcellus, isolated guinea-pig ileum, read-out: anti-histamine activity, ED50
Method: The anti-histamine activity was tested in an isolate of guinea-pig ileum, suspended in a Tyrode bath at 32°-35° C. according to a protocol described by R. A. Turner (Screening Methods in Pharmacology, Academic Press, 1965, p. 43).

- pIC50: 6.77
Structure (SMILES): C(=C\c1ccccc1)/CN1CCN(C(c2ccccc2)c2ccccc2)CC1 [Cinnarizine]
